PubChem BioAssay AID686943 | Drosophila RNAi Screening Center | 2013

Aim: 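Fly genes whose loss alters ERK activation after insulin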 (primary screen)
Cell system: Drosophila S2R+ haemocyte-like cells expressing YFP-tagged ERK (Rolled)
Knock-down reagent: long dsRNA against Drosophila genes
Treatment: insulin stimulation versus unstimulated cells; dose and duration not given
Measurement: 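Per-plate z-scores of phospho-ERK immunostaining normalised to YFP-tagged ERK, measured with and without insulin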
Direction: replicate 1, z-score of dpERK with insulin and replicate 2, z-score of dpERK with insulin: higher = more active ERK per ERK-YFP after insulin; replicate 1, z-score of dpERK under basal conditions: higher = more basal active ERK per ERK-YFP; replicate 1, z-score of ERK-YFP with insulin: higher = more YFP-tagged ERK signal
The screen tested about 23,000 reagents; below is an unselected part of those that have a named target and a result. 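Extra replicates exist only for a retested subset of genes; insulin dose and duration not given; both raised and lowered dpERK matter.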 The numbers tell different reagents against one gene apart. Names joined by + are all predicted targets of the reagent. The record does not give: the amount of reagent, the time to read-out.

| Gene | reagent | replicate 1, z-score of dpERK with insulin | replicate 2, z-score of dpERK with insulin | replicate 1, z-score of dpERK under basal conditions | replicate 1, z-score of ERK-YFP with insulin |
| --- | --- | --- | --- | --- | --- |
| Ir7a (Ionotropic receptor 7a) | 1 | -0.22 | -0.17 | -0.74 | 0.48 |
| CG34316 + asRNA:CR43471 | 1 | -0.24 | 0.06 | 0.6 | 1.02 |
| PICK1 (Protein interacting with C kinase 1) | 1 | 0.1 | 0 | 1.02 | 0.65 |
| PICK1 (Protein interacting with C kinase 1) | 2 | -0.36 | 0.19 | 0.17 | 0.13 |
| mRRF2 (mitochondrial ribosome recycling factor 2) | 1 | 0.43 | 0.92 | -0.14 | 0.11 |
| SLO2 (slowpoke 2) | 1 | -2.92 | -3.35 | -1.71 | -5.43 |
| SLO2 (slowpoke 2) | 2 | 0.53 | -0.22 | -0.76 | -0.19 |
| SLO2 (slowpoke 2) | 3 | -0.74 | -0.73 | -0.38 | 1.22 |
| SLO2 (slowpoke 2) | 4 | -0.59 | 0.57 | -0.21 | 0.73 |
| SLO2 (slowpoke 2) | 5 | -0.56 | -3.97 | -1.79 | -2.39 |
| Atac2 (Ada2a-containing complex component 2) | 1 | 0.27 | -0.72 | 1.53 | -0.29 |
| Cks85A (Cyclin-dependent kinase subunit 85A) | 1 | -0.3 | 0.68 | 0.35 | -0.18 |
| BEAF-32 + CG42254 (retired record) | 1 | -0.77 | -0.53 | -0.71 | 0.05 |
| blp (black pearl) | 1 | 0.97 | 0.47 | 1.08 | -0.61 |
| CheB42c (Chemosensory protein B 42c) | 1 | 0.49 | 0.06 | 0.43 | 0.33 |
| CG43163 | 1 | 0.12 | 0.47 | 0.78 | 0.07 |
| Mocs2A + Mocs2B | 1 | -0.74 | -1.13 | -2.58 | 0.14 |
| Mocs2A + Mocs2B | 2 | 0.76 | -0.12 | 0.27 | -0.07 |
| CG41020 (retired record) | 1 | 0.16 | -1.34 | 0.15 | 1.52 |
| Drs (Drosomycin) | 1 | 0.08 | -0.06 | -0.2 | 0.68 |
| Pdh (Photoreceptor dehydrogenase) | 1 | 0.3 | -0.07 | -0.09 | -0.31 |
| CG13694 | 1 | -0.42 | 0.02 | 0.43 | 0.15 |
| CG30154 | 1 | 0.33 | -0.65 | 0.81 | 0.12 |
| CG5172 | 1 | 2.13 | 2.27 | 0.99 | 0.16 |
| Cap-D3 + tomb | 1 | -0.11 | 0.23 | 0.2 | 0.4 |
| CG10183 | 1 | 0.7 | -0.4 | 0.78 | 0.26 |
| Pka-C3 (Protein kinase, cAMP-dependent, catalytic subunit 3) | 1 | -0.3 | 0.36 | -1.01 | 0.6 |
| Pka-C3 (Protein kinase, cAMP-dependent, catalytic subunit 3) | 2 | 0.89 | -0.04 | 1.08 | -4.08 |
| Spf45 | 1 | 0.22 | 0.94 | 0.7 | -2.63 |
| ben (bendless) | 1 | -0.53 | -0.2 | 2.08 | 0.26 |
| ben (bendless) | 2 | -0.15 | -0.13 | 0.35 | -0.05 |
| Tsp29Fb (Tetraspanin 29Fb) | 1 | 0.06 | 0.05 | 1.1 | 0.12 |
| eIF4G2 (eukaryotic translation initiation factor 4G2) | 1 | 0.41 | 0.06 | -0.33 | 1.24 |
| eIF4G2 (eukaryotic translation initiation factor 4G2) | 2 | 0.94 | -2.16 | -0.28 | 0.01 |
| RpL38 (Ribosomal protein L38) | 1 | -2.19 | -0.85 | -1.7 | -2.04 |
| Gbeta5 (G protein beta subunit 5) | 1 | -0.24 | -0.06 | 0.62 | 0.33 |
| Tnpo (Transportin) | 1 | -0.28 | 0.04 | -1.12 | -0.89 |
| Act5C (Actin 5C) | 1 | -1.2 | -3.38 | -2.38 | 1.42 |
| Glut1 (Glucose transporter 1) | 1 | -0.54 | -0.46 | -1.18 | -0.36 |
| Glut1 (Glucose transporter 1) | 2 | 0.91 | 0.9 | -1.48 | -0.29 |
| Glut1 (Glucose transporter 1) | 3 | -0.09 | 0.43 | 0.84 | -0.06 |

2 neighbouring entries already listed:
| Gene | reagent | replicate 1, z-score of dpERK with insulin | replicate 2, z-score of dpERK with insulin | replicate 1, z-score of dpERK under basal conditions | replicate 1, z-score of ERK-YFP with insulin |
| --- | --- | --- | --- | --- | --- |
| Tnpo (Transportin) | 1 | -0.28 | 0.04 | -1.12 | -0.89 |
| Act5C (Actin 5C) | 1 | -1.2 | -3.38 | -2.38 | 1.42 |
